Patent US10618901B2 (GlaxoSmithKline Intellectual Property Development Limited, priority 2014, dated 2020)
Some results were stated once for a whole list of compounds, not compound by compound.

Target: T1, 6HIS-Tev-LRRK2 (1326-2527) (Homo sapiens, UniProt Q5S007)
T1 construct: A LRRK2 cDNA encoding residues 1326-2527 was received from Dundee University; made in house; host or cells: Spodoptera frugiperda Sf9 (baculovirus, pFB-HTb)
T1 sequence (Q5S007 1326-2527): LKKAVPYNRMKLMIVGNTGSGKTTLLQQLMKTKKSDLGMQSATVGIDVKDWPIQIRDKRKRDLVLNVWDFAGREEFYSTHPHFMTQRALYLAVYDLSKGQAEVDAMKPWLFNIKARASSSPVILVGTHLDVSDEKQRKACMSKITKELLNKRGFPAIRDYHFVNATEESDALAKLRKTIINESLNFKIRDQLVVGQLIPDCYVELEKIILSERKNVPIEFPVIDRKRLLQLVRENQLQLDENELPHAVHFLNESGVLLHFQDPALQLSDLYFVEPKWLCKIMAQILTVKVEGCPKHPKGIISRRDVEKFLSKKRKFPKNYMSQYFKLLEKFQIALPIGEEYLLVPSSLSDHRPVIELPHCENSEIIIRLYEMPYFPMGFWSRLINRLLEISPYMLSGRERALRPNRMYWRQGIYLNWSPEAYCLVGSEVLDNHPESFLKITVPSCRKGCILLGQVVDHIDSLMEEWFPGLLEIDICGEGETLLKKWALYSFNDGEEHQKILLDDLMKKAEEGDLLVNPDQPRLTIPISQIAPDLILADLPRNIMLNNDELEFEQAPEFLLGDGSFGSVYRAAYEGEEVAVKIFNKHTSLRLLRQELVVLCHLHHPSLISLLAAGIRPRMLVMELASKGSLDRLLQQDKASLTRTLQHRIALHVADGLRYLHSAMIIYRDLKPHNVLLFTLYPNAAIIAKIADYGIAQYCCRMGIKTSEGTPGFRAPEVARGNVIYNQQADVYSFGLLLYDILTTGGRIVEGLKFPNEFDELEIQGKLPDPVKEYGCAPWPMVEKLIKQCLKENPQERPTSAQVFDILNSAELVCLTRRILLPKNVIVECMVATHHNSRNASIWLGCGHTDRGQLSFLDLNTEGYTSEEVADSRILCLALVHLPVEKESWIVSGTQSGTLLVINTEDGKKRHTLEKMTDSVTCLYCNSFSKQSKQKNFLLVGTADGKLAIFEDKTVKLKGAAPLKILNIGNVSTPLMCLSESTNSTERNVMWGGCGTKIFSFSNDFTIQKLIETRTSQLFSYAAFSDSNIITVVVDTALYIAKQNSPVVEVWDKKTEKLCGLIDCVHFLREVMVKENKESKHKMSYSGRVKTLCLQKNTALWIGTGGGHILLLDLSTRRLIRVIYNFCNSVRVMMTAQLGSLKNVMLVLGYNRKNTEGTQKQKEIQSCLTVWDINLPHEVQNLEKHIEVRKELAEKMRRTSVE
Test: Recombinant LRRK2 enzyme peptide substrate TR-FRET assay
Assay type: biochemical
Conditions: 60 nM LRRK2 enzyme; 10 uM ATP
Protocol: A LRRK2 cDNA encoding residues 1326-2527 was received from Dundee University (described in M. Jaleel et al., 2007, Biochem J, 405: 407-417). This gene fragment was subcloned into pFB-HTb (Invitrogen) using BamHI and NotI restriction sites. The LRRK2 plasmid was recombined into the baculovirus genome according to the BAC-to-BAC protocol described by Invitrogen. Transfection into Spodoptera frugiperda (Sf9) insect cells was performed using Cellfectin (Invitrogen), according to the manufacturer's protocol to generate P1 and P2 baculovirus stocks.
Sf9 cells were grown in HyClone SFX (Thermo Scientific) growth media at 27° C., 80 rpm in shake flask until of a sufficient volume to inoculate a bioreactor. The cells were grown in a 20 liter working volume Wave bioreactor (GE Healthcare) at 27° C., 50% dissolved oxygen and an agitation rate 22 rocks per minute, 10 degree rock angle, 200 ml/min air with a cell concentration of approximately 6×e6 cells/ml. The cells were infected with P2 Baculovirus at a multiplicity of infection (MOI) of 3. The cultivation was continued for a 48 hour expression phase. The infected cells were removed from the growth media by centrifugation at 2500 g using a Sorvall RC 3C Plus centrifuge at 2500 g for 20 minutes. The cell pellet was immediately frozen and subsequently supplied for purification.
A 260 g pellet was allowed to thaw in a water bath at 27° C. with 800 ml lysis buffer/buffer A (50 mm Tris-HCl pH 8.5, 300 mM NaCl, 1 mm DTT, 10% glycerol, 1 ml/L calbiochem complete protease inhibitor cocktail and benzonase (50 ul/800 ml)) before being dounce homogenised on ice using 20 strokes per 100 ml. The suspension was packed in ice and sonicated at 50% amplitude for 3 min 10 sec on/off using a ¾″ probe. The suspension was then centrifuged at 100,000 g for 90 min, at 4° C.
The lysate (700 ml) was decanted from the insoluble pellet and contacted for 3 h at 4 C with 10 ml His bind Ni NTA resin by end over end mixing. The resin was recovered by centrifugation, 3000 g, 5 min at 4 C, and packed in an XK16 column. The column was then washed with 10 column volumes buffer A, 10 column volumes buffer B (buffer A+1M NaCl) and 10 column volumes buffer C (buffer A+20 mM imidazole). The column was then eluted with 15 column volumes buffer D (buffer A+300 mM imidazole) collecting 2 ml fractions. All washes and elution were conducted at 4 ml/min.
Fractions identified by SDS-PAGE as containing protein of interest were pooled and loaded directly onto a 320 ml SEC Superdex 200 pg column that was pre-equilibrated with buffer E (50 mM Tris-HCl pH 8.5, 300 mM NaCl, 10% glycerol, 1 mM DTT). The column was loaded and eluted with 1.2 column volumes buffer E at 2 ml/min collecting 2 ml fractions. Fractions identified by SDS-PAGE as containing protein of interest were tested for activity.
Production of Biotin-Loner LRRKtide
The peptide (biotin-[…]-OH) was assembled at a […] scale using FMOC solid phase peptide synthesis on an ACT 357 MPS automated peptide synthesizer. The resulting crude peptide was cleaved from the resin using a 95:2.5:2.5 mix of trifluoroacetic acid: triisopropylsilane: water. The crude cleaved peptide was purified by reverse phase HPLC, eluting with a 5-35% gradient of 0.1% trifluoroacetic acid/acetonitrile in 0.1% trifluoroacetic acid/water.
Recombinant LRRK2 Enzyme Peptide Substrate TR-FRET Assay
This assay for LRRK2 inhibition is based on the detection of phosphorylation of the peptide ‘longer LRRKtide’ (biotin-[…]-OH) using a time resolved-fluorescence resonance energy transfer (TR-FRET) assay. It uses an antibody labelled europium chelate donor, W-1024 (Eu) and Streptavidin-Surelight APC acceptor (APC). When in close proximity, the excitation of Eu at 330 nm leads to energy transfer to APC with emission of light at 665 nm,
Assay Protocol • 1. A 10 mM test compound was dissolved in 100% DMSO and serially diluted 1 in 4. […]

| Compound | pIC50 in the recombinant LRRK2 enzyme peptide substrate TR-FRET assay |
| --- | --- |
| CCOc1nc(Nc2cnn([C@H]3CCN(C4COC4)C[C@@H]3F)c2C)nc2[nH]ccc12 [Example E97, 4-ethoxy-N-(1-((3S,4S)-3-fluoro-1-(oxetan-3-yl)piperidin-4-yl)-5-methyl-1H-pyrazol-4-yl)-7H-pyrrolo[2,3-d]pyrimidin-2-amine] | ≥ 5.0 |
| CCOc1nc(Nc2cnn(C3CCCC3O)c2Cl)nc2[nH]ccc12 (racemic) [Example E36, (±)-2-(5-chloro-4-((4-ethoxy-7H-pyrrolo-[2,3-d]-pyrimidin-2-yl)amino)-1H-pyrazol-1-yl)cyclopentanol] | ≥ 5.0 |
| CCOc1nc(Nc2c(C)nn(CC(C)(C)O)c2C)nc2[nH]ccc12 [Example E5, 1-(4-((4-ethoxy-7H-pyrrolo[2,3-d]pyrimidin-2-yl)amino)-3,5-dimethyl-1H-pyrazol-1-yl)-2-methylpropan-2-ol] | ≥ 5.0 |
| CCOc1nc(Nc2cnn(C3CC(C)(O)C3)c2C)nc2[nH]ccc12 (stereo not drawn) [Example E93, 3-(4-((4-ethoxy-7H-pyrrolo[2,3-d]pyrimidin-2-yl)amino)-5-methyl-1H-pyrazol-1-yl)-1-methylcyclobutanol] | ≥ 5.0 |
| CCOc1nc(Nc2cn(CC(C)(C)O)nc2C)nc2[nH]nc(C)c12 [Example E23, 1-(4-((4-ethoxy-3-methyl-1H-pyrazolo-[3,4-d]-pyrimidin-6-yl)amino)-3-methyl-1H-pyrazol-1-yl)-2-methylpropan-2-ol] | ≥ 5.0 |
| CCOc1nc(Nc2cnn(C3COC3)c2C)nc2[nH]ccc12 [Example E34, 4-ethoxy-N-(5-methyl-1-(oxetan-3-yl)-1H-pyrazol-4-yl)-7H-pyrrolo[2,3-d]pyrimidin-2-amine] | ≥ 5.0 |
| CCOc1nc(Nc2cnn(C)c2Cl)nc2[nH]ccc12 [Example E4, N-(5-chloro-1-methyl-1H-pyrazol-4-yl)-4-ethoxy-7H-pyrrolo-[2,3-d]-pyrimidin-2-amine] | ≥ 5.0 |
| CCOc1nc(Nc2cnn(CC(C)N3CCOCC3)c2C)nc2[nH]ccc12 (single isomer, unassigned) [Example E91] | ≥ 5.0 |
| CCOc1nc(Nc2cnn(CC(C)(C)O)c2C)nc2[nH]ccc12 [Example E3, 1-(4-((4-ethoxy-7H-pyrrolo-[2,3-d]pyrimidin-2-yl)amino)-5-methyl-1H-pyrazol-1-yl)-2-methylpropan-2-ol] | ≥ 5.0 |
| CCOc1nc(Nc2cnn(CC3COC3)c2C)nc2[nH]ccc12 [Example E29, 4-ethoxy-N-(5-methyl-1-(oxetan-3-yl-methyl)-1H-pyrazol-4-yl)-7H-pyrrolo-[2,3-d]pyrimidin-2-amine] | ≥ 5.0 |
| CCOc1nc(Nc2cnn(C(C)(C)C#N)c2C)nc2[nH]ccc12 [Example E96, 2-(4-((4-ethoxy-7H-pyrrolo[2,3-d]pyrimidin-2-yl)amino)-5-methyl-1H-pyrazol-1-yl)-2-methylpropanenitrile] | ≥ 5.0 |
| CCOc1nc(Nc2cn(C)nc2C)nc2[nH]ccc12 [Example E1, N-(1,3-dimethyl-1H-pyrazol-4-yl)-4-ethoxy-7H-pyrrolo[2,3-d]pyrimidin-2-amine] | ≥ 5.0 |
